The text below walks through data of the supplement of paper PMC9135407.

For this assay, the system named is primary human hepatic stellate cells (donor 1). As to the kind of experiment: percent Bodipy-positive cells; higher = more lipid droplet accumulation. Conditions: 48 h.
The mark [1] stands for this setting: library stock concentration: 3.33 mM.
[2] abbreviates: library stock concentration: 10 mM.
[3] abbreviates: library stock concentration: 1 mM.
The mark [4] stands for this setting: library stock concentration: 5.4 mM.
Where [5] appears, read: library stock concentration: 6.7 mM.

Where “and” joins values, the source holds several entries; their conditions need not be identical. Equal values may be shown once. Where a name gives a salt, the structure may show the parent alone. ± gives the standard deviation of the averaged measurements. The list shows a part of the results. Part of the spread comes from offsets between plates or batches.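 Primary human stellate myofibroblasts activated in culture; inactivation shown by regained lipid droplets. Readout: fraction of Hoechst-counted cells exceeding a per-plate Bodipy threshold, duplicate wells, each plate with DMSO negative and nortriptyline positive controls. Hits: control-normalized score beyond the plate's top-tenth-percentile nortriptyline wells, or among its three best wells. Final well concentrations unstated.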

For `COc1ccc(-c2ccc3c(N4CCOCC4)nc(N4C[C@@H](C)O[C@@H](C)C4)nc3n2)cc1CO`, the “percent Bodipy-positive cells” value is 12.1 ± 7.2% (library stock concentration: 400 uM); 14.5 ± 3% (library stock concentration: 2 mM); 7.8 ± 0.45% under setting [1]; 12.4% and 9.91% under setting [2].

In the case of `Nc1ccc(CCNc2ncnc3c2ncn3C2OC(CO)C(O)C2O)cc1` (configuration not stated) [N6-2-(4-Aminophenyl)ethyladenosine], the “percent Bodipy-positive cells” value under setting [2] was found to be 31.6 ± 4.1%.

For `Cn1cnc2cc3c(Nc4cccc(Br)c4)ncnc3cc21`, the “percent Bodipy-positive cells” value under setting [1] stood at 5.95 ± 0.51%.

For `C#C[C@]1(O)CC[C@H]2[C@@H]3CCC4=Cc5oncc5CC4(C)[C@H]3CCC21C` (some centres not stated) [Danazol], under setting [2], the “percent Bodipy-positive cells” value turned out to be 86 ± 3.1%.

As for `CCCCC[C@H](O)/C=C/[C@H]1C=CC(=O)[C@@H]1CCCCCCC(=O)OCC` [Prostaglandin A1 ethyl ester], the “percent Bodipy-positive cells” value under setting [3] turned out to be 18.4 ± 5.3%.

In the case of `NS(=O)(=O)c1ccc(N=Nc2c(O)[nH]c3ccc(Br)cc23)cc1` [Cdk2 Inhibitor II], the “percent Bodipy-positive cells” value under setting [1] was found to be 8.4 ± 3%.

For the molecule `NC(N)=Nc1nc(CSCC/C(N)=N/S(N)(=O)=O)cs1` [Famotidine], the “percent Bodipy-positive cells” value turned out to be 28.8 ± 3%. Also, the “percent Bodipy-positive cells” value under setting [1] is 9.83 ± 1.8%. Also, under “library stock concentration: 5.9 mM”, the “percent Bodipy-positive cells” value was 10.6% and 14.5%.

For the molecule `NC(N)=Nc1nc(CSCC/C(N)=N/S(N)(=O)=O)cs1`, the “percent Bodipy-positive cells” value under setting [2] came out at 6.95 ± 2.3%.

In the case of `Cc1cc(-c2ccccc2)nnc1NCCN1CCOCC1` [Minaprine hydrochloride], the “percent Bodipy-positive cells” value worked out at 21.8 ± 6.2% under setting [4] and 40.2 ± 5.1% under setting [2].

With `Cc1cc(-c2ccccc2)nnc1NCCN1CCOCC1` [Minaprine dihydrochloride], the “percent Bodipy-positive cells” value was determined as 18.5 ± 2.7%.

Consider `CC/C(=C(/CC)c1ccc(O)cc1)c1ccc(O)cc1` [Diethylstilbestrol], for which the “percent Bodipy-positive cells” value came to 15.8 ± 9.4%. Moreover, the “percent Bodipy-positive cells” value under setting [3] came out at 9.63 ± 1.6%. For the same molecule, under setting [1], the “percent Bodipy-positive cells” value came to 8.1 ± 4.7%. For the same molecule, the “percent Bodipy-positive cells” value (library stock concentration: 7.5 mM) was 8.85% and 4.65%. Further, the “percent Bodipy-positive cells” value under setting [2] is 13.9% and 10.1%.

For `CC1=C(/C=C/C(C)=C/C=C/C(C)=C\C(=O)O)C(C)(C)CCC1` [13-cis retinoic acid], the “percent Bodipy-positive cells” value under setting [3] was found to be 6.22 ± 5%.

In the case of `CC1=C(/C=C/C(C)=C/C=C/C(C)=C\C(=O)O)C(C)(C)CCC1` [Isotretinoin], the “percent Bodipy-positive cells” value is 24.4 ± 8.9%. Further, under setting [1], the “percent Bodipy-positive cells” value is 14.3 ± 8.3%.

In the case of `CC1=C(/C=C/C(C)=C/C=C/C(C)=C\C(=O)O)C(C)(C)CCC1` [Isotretinon], the “percent Bodipy-positive cells” value by setting is: under setting [5], 22.89 ± 0.03%; under setting [2], 25.3 ± 1.3%.

`CC1=C(/C=C/C(C)=C/C=C/C(C)=C\C(=O)O)C(C)(C)CCC1` [13-cis-retinoic acid]: the “percent Bodipy-positive cells” value under setting [2] was found to be 13.8 ± 1.9%.

On to `Nc1nc(OCc2ccccc2)c2nc[nH]c2n1` [O6-benzylguanine], for which, under setting [2], the “percent Bodipy-positive cells” value came to 57 ± 5.9%.

As for `Cl.N=C(N)NCCC[C@H](N)C(=O)O`, the “percent Bodipy-positive cells” value under setting [2] came out at 50.8 ± 1.1%.

With `NC1C=CC=C(C(=O)O)C1` (configuration not stated) [Gabaculine hydrochloride], the “percent Bodipy-positive cells” value under setting [2] stood at 32.8 ± 10%.

`CC(C)(Sc1ccc(CCN(CCCCC2CCCCC2)C(=O)NC2CCCCC2)cc1)C(=O)O`: the “percent Bodipy-positive cells” value under setting [3] is 12.1 ± 1.1%.

Turning to `CSc1ccc2c(c1)N(CCC1CCCCN1C)c1ccccc1S2` (configuration not stated) [Thioridazine hydrochloride], the “percent Bodipy-positive cells” value worked out at 72.7 ± 6.5%. For the setting “library stock concentration: 4.9 mM”, the “percent Bodipy-positive cells” value was 78 ± 4.5%.

For `CSc1ccc2c(c1)N(CCC1CCCCN1C)c1ccccc1S2` (configuration not stated) [Thioridazine HCl], the “percent Bodipy-positive cells” value under setting [4] came to 97.8 ± 3.1%.

`CC#CCC(C)[C@@H](O)/C=C/[C@@H]1[C@H]2C/C(=C/CCCC(=O)O)C[C@H]2C[C@H]1O` (stereo partly drawn) [15(R)-Iloprost]: under setting [3], the “percent Bodipy-positive cells” value amounted to 13.7 ± 8.7%.

As for `O=C(/C=C/c1ccc(O)c(O)c1)O[C@@H]1C[C@](O)(C(=O)O)C[C@@H](O)[C@H]1O` [Chlorogenic acid], the “percent Bodipy-positive cells” value stood at 31 ± 2.2%. The “percent Bodipy-positive cells” value under setting [2] worked out at 33.2 ± 15%.

Turning to `O=C(/C=C/c1ccc(O)c(O)c1)O[C@@H]1C[C@](O)(C(=O)O)C[C@@H](O)[C@H]1O` [Chlorogenic Acid], the “percent Bodipy-positive cells” value under setting [3] was 7.3 ± 1.4%, the “percent Bodipy-positive cells” value under setting [1] was found to be 11.3 ± 8.2% and the “percent Bodipy-positive cells” value under setting [2] amounted to 16.2 ± 0.62%.

On to `C[C@@H]1COC(Nc2ccc3ncnc(Nc4ccc(OCc5nccs5)c(Cl)c4)c3c2)=N1` [Varlitinib], for which the “percent Bodipy-positive cells” value under setting [1] is 38.2 ± 1.1% and the “percent Bodipy-positive cells” value under setting [2] was determined as 69.5 ± 5.5%.

Take `CC(C)CCC[C@@H](C)[C@H]1CC[C@H]2[C@@H]3CC(=O)[C@@]4(O)C[C@@H](O)CC[C@]4(C)[C@H]3CC[C@]12C` [5.alpha.-hydroxy-6-keto Cholesterol]: the “percent Bodipy-positive cells” value under setting [3] came to 11.1 ± 3.4%.

Turning to `C=CCOC(Cn1ccnc1)c1ccc(Cl)cc1Cl` (configuration not stated) [Enilconazole], the “percent Bodipy-positive cells” value stood at 9.82 ± 0.49%. Also, the “percent Bodipy-positive cells” value under setting [5] was found to be 34.4 ± 22%.

With `N#C/C(=C\c1ccc(O)c(O)c1)C(=O)NCc1ccccc1`, the “percent Bodipy-positive cells” value worked out at 10.5 ± 5.9% under setting [1], 6.99 ± 0.29% under setting [2] and 11.8 ± 4.2% (library stock concentration: 17 mM).

As for `C[C@@H]1CN(CCCn2c3ccccc3c3ccccc32)C[C@H](C)N1.Cl.Cl` [Rimcazole dihydrochloride], the “percent Bodipy-positive cells” value under setting [2] was found to be 97.9 ± 1.5%.

With `N=C(N)NCCN1CCCCCCC1` [Guanethidine sulfate], the “percent Bodipy-positive cells” value was 18.4 ± 3%. Also, under setting [5], the “percent Bodipy-positive cells” value came out at 4.52 ± 0.44%. Moreover, the “percent Bodipy-positive cells” value under setting [2] was found to be 10.9 ± 0.44%.

With `Cc1ccc2nc(NC(=O)CSc3nc4c(c(=O)n3-c3ccccc3)SCC4)sc2c1`, the “percent Bodipy-positive cells” value is, setting by setting: under setting [1], 18.6 ± 5.7%; under setting [2], 86 ± 7.8%.

On to `CC(C)CCCC(C)NC(C)C` (configuration not stated), for which, under setting [2], the “percent Bodipy-positive cells” value came out at 32.4 ± 1.9%.

Consider `C#C[C@]1(O)CC[C@H]2[C@@H]3CCC4=CC(=O)CC[C@@H]4[C@H]3CC[C@@]21CC`, for which, under setting [2], the “percent Bodipy-positive cells” value was 34.6 ± 0.84%.

`C#C[C@]1(O)CC[C@H]2[C@@H]3CCC4=CC(=O)CC[C@@H]4[C@H]3CC[C@@]21CC` [Norgestrel-(-)-D]: the “percent Bodipy-positive cells” value came to 15.6 ± 2.1%.
